Among the data in article PMC8663777 are binding values, retold here.

Amino acid sequences for entries named in this document (tags omitted).
UniProt Q15796: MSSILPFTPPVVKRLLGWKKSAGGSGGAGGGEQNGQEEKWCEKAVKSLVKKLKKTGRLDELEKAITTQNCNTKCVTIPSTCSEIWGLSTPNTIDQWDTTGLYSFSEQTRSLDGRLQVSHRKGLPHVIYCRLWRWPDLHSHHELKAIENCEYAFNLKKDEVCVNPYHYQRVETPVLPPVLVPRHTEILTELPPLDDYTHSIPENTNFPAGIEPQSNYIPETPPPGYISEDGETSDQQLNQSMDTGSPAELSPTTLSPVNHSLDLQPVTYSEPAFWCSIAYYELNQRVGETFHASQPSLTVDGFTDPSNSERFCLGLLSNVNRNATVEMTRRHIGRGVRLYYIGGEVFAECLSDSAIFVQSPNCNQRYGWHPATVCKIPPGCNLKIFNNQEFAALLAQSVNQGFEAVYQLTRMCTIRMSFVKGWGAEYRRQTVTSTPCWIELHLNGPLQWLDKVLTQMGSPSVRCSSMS
UniProt Q13485: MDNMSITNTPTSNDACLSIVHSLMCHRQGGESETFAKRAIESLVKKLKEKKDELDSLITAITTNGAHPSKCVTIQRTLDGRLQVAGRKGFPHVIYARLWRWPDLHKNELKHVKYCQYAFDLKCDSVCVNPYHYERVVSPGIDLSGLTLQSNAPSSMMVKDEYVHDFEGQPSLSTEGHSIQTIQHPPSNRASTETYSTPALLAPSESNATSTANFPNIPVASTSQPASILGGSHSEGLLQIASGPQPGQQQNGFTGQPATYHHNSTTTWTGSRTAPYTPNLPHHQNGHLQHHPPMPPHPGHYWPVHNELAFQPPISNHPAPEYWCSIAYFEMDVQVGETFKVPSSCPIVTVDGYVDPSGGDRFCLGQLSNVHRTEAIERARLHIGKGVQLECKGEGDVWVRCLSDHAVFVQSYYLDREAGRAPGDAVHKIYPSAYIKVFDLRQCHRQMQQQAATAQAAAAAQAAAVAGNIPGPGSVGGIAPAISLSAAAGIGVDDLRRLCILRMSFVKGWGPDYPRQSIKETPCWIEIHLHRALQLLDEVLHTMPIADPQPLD

These are yes or no findings as the source states them, for the method shown. In cells and extracts the contact can be indirect. Some entries that bind do so weakly or less than the wild type. Tags and fused reporters may be left off the sequences shown.

The target in test [1] is SMAD2 (human (endogenous in HEK293T)) (UniProt Q15796). Briefly: co-IP; lysate of HEK293T cells transfected with Myc-tagged HDAC7 (48 h); lysis buffer 20 mM Tris-HCl, 150 mM NaCl, 0.3% Nonidet P-40, 10% glycerol, pH 7.5; endogenous SMADs immunoprecipitated with anti-SMAD4 or anti-SMAD2 (16 h, protein A/G-agarose), immunoblot for Myc; control IgG. (In general: Immunoblotting shows a protein as a band on a membrane.)

Test [2] has as its target SMAD4 (human (endogenous in HEK293T)) (UniProt Q13485). The description is as above.

B1: Myc-tagged HDAC7 (protein, UniProt Q8WUI4 1-952)
chain: MDLRVGQRPPVEPPPEPTLLALQRPQRLHHHLFLAGLQQQRSVEPMRLSMDTPMPELQVGPQEQELRQLLHKDKSKRSAVASSVVKQKLAEVILKKQQAALERTVHPNSPGIPYRTLEPLETEGATRSMLSSFLPPVPSLPSDPPEHFPLRKTVSEPNLKLRYKPKKSLERRKNPLLRKESAPPSLRRRPAETLGDSSPSSSSTPASGCSSPNDSEHGPNPILGSEALLGQRLRLQETSVAPFALPTVSLLPAITLGLPAPARADSDRRTHPTLGPRGPILGSPHTPLFLPHGLEPEAGGTLPSRLQPILLLDPSGSHAPLLTVPGLGPLPFHFAQSLMTTERLSGSGLHWPLSRTRSEPLPPSATAPPPPGPMQPRLEQLKTHVQVIKRSAKPSEKPRLRQIPSAEDLETDGGGPGQVVDDGLEHRELGHGQPEARGPAPLQQHPQVLLWEQQRLAGRLPRGSTGDTVLLPLAQGGHRPLSRAQSSPAAPASLSAPEPASQARVLSSSETPARTLPFTTGLIYDSVMLKHQCSCGDNSRHPEHAGRIQSIWSRLQERGLRSQCECLRGRKASLEELQSVHSERHVLLYGTNPLSRLKLDNGKLAGLLAQRMFVMLPCGGVGVDTDTIWNELHSSNAARWAAGSVTDLAFKVASRELKNGFAVVRPPGHHADHSTAMGFCFFNSVAIACRQLQQQSKASKILIVDWDVHHGNGTQQTFYQDPSVLYISLHRHDDGNFFPGSGAVDEVGAGSGEGFNVNVAWAGGLDPPMGDPEYLAAFRIVVMPIAREFSPDLVLVSAGFDAAEGHPAPLGGYHVSAKCFGYMTQQLMNLAGGAVVLALEGGHDLTAICDASEACVAALLGNRVDPLSEEGWKQKPNLNAIRSLEAVIRVHSKYWGCMQRLASCPDSWVPRVPGADKEEVEAVTALASLSVGILAEDRPSEQLVEEEEPMNL
In the case of B1, the binding entry in test [1] and in test [2] was “binds” in each case.
